Results are given in words; binding and its absence hold for the method and conditions named. Binding can be weak; no strength is given.
What was measured:
[1] = target: LGR6 486-527 recombinant fragment (pET32b tag fusion); test: Ag-ELISA on recombinant fragments, absorbance minus blank (legend of Figure 2)
[2] = target: LGR6 486-527 recombinant fragment (pET32b tag fusion); test: Ag-ELISA, 50 ng fragment per well, m164 at 1 μg/ml

binding [1]: binds
binding [2]: binds
B1: m164抗体 (anti-LGR6 mouse monoclonal antibody produced by hybridoma clone 164) (antibody, V domains shown)
VH: EVQLQQSGPELVKPGASVKISCKTSGYTFTEYTMHWVKQSHGKSLEWIGGINPYNRVSSYNQRFKGKATLTVDKSSSTAYMELRSLTSEDSAVYYCARRYDVFDSWGQGTTLTVSS
VL: DIVMSQSPSSLAVSVGEKVSMSCKSSQSLLYSSNQKNYLAWYQQKPGQSPKLLISWASTRESGVPARFTGSGSGTDFTLTISSVRAEDLAVYYCQQHFNYPYTFGGGAKLEMK

From patent JP2018158894A
